These results are taken from PubChem BioAssay AID2685 (National Center for Advancing Translational Sciences (NCATS), 2010).

The list shows a part of the results. The main result of the screen is listed elsewhere. These columns were measured beside it and carry no call. The list favours compounds with an active or inconclusive main result. The note in brackets gives the kind of curve behind each potency; many fits are weak.

The nature of this experiment: qHTS Assay for Lipid Storage Modulators in Drosophila S3 Cells.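 As to cell number change: cells counted by Cell Tracker Red CMTPX staining in the red channel.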 Conditions: BODIPY lipid droplet fluorescence, 18-24 h; for cell number change: measured here: cell count max response, cells fed with added oleic acid. Put shortly:
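Drosophila S3 cells loaded with oleic acid (400 uM, as added) and compounds at several concentrations; lipid droplets imaged by 488-nm laser-scanning cytometry, 500–530 nm intensity and object ratio to cell channel. Percent activity normalized to 20 uM Triacsin C.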
(In general: qHTS replaces the single test concentration by a dilution series.)

Where [1] appears, read: measured here: lipid fluorescence (Fed channel) AC50, cells fed with added oleic acid.
Where [2] appears, read: measured here: cell number channel AC50, cells fed with added oleic acid.

The term AC50 denotes the concentration at which the activity in the assay is half-maximal. A high value points to activity only at high concentration. As for `COC(=O)[C@@]12CCCN1[C@H](c1ccc(-c3ccc(F)cc3)c(OC)c1)[C@H]1C(=O)N(C)C(=O)[C@H]12`, the cell number change was determined as 17.9%. Moreover, under setting [1], the AC50 was 0.146 µM [falling, full curve, poor fit].
For the compound `CCn1cnc2sc(C(=O)Nc3ccc4c(c3)OCO4)c(C)c2c1=O`, the concentration at half-maximal activity (AC50) is, setting by setting: under setting [2], 0.461 µM [rising, full curve]; under setting [1], 0.651 µM [rising, full curve].
In the case of `Cc1cccc(C)c1NC(=O)N1C2CCCC1CC(NC(=O)C(C)(C)C)C2` (stereo not given), the cell number change was -10.7%.
Turning to `CNC(=O)COc1cccc(C(=O)NCc2ccccc2)c1`, the cell number change turned out to be 27.3%. Further, under setting [1], the AC50 was 10.3 µM [rising, partial curve, poor fit].
Regarding `Cc1cccc(CSc2nnc(-c3ccco3)n2C)c1`, the cell number change was -18.1%. Also, under setting [2], the AC50 is 6.51 µM [falling, single point].
Take `O=S(=O)(c1ccc(S(=O)(=O)n2cnc3ccccc32)cc1)N1CCCCCC1`: the cell number change worked out at 1.84%.
Same read-out and setting: the value for `COc1cc(C)c(C)cc1S(=O)(=O)n1c(C)nc2ccccc21` was 25.6%.
For `CC1CCc2nn(CC(=O)NCCCN3CCCC3=O)cc2C1` (stereo not given), the cell number change is 22.8%. Moreover, the AC50 under setting [1] was 0.291 µM [falling, partial curve, poor fit].
With `COc1cc(Cl)c(C)cc1NCC(=O)Nc1cccc(S(=O)(=O)N2CCCC2)c1`, the cell number change is -5.94%. Besides, the half-maximal activity concentration (AC50) under setting [1] is 0.103 µM [rising, full curve, poor fit].
For the compound `COc1cccc(-n2nnc3c(=O)n(Cc4ccc(C)cc4)cnc32)c1`, the cell number change is -20.5%. For the same compound, under setting [1], the AC50 is 0.164 µM [falling, full curve, poor fit].
On to `CCc1sc(NC(=O)CN2CCC(C(N)=O)CC2)nc1-c1ccccc1`, for which the cell number change turned out to be 0.794%. Further, the AC50 under setting [1] is 25.9 µM [falling, single point].
As to `O=C(Nc1ccc2c(c1)OCCO2)Nc1ccc2c(c1)OCO2`, the cell number change was 6.89%. Also, the AC50 under setting [1] was 2.06 µM [falling, partial curve].
Take `O=C(NCCCN1CCOCC1)C(C(=O)c1ccccc1)n1ccccc1=O` (stereo not given): the cell number change is -8.96%. In addition, the AC50 under setting [1] is 0.146 µM [falling, full curve, poor fit].
In the case of `COc1ccccc1OCC(=O)NCC1CCCN(Cc2cnn(C(C)C)c2)C1` (stereo not given), the cell number change was 1.76%. For the same compound, the AC50 under setting [1] is 0.146 µM [rising, full curve, poor fit].
On to `CCn1c(SCC(=O)Nc2ccc3c(c2)OCCO3)nnc1-c1ccccn1`, for which the cell number change is -24.8%. Moreover, the AC50 under setting [2] is 4.11 µM [rising, single point]. Further, the AC50 under setting [1] is 0.326 µM [rising, full curve, poor fit].
As to `O=C(NCc1ccc2c(c1)OCO2)c1ccc(-n2cnnn2)cc1`, the cell number change is -11.5%. Besides, the AC50 under setting [1] was 1.64 µM [rising, full curve].
Consider `O=C(CCn1c(=S)oc2ccccc21)Nc1cc([N+](=O)[O-])ccc1F`, for which the cell number change stood at 31.5%. The AC50 under setting [2] was 14.6 µM [rising, partial curve, poor fit]. Besides, the AC50 under setting [1] is 29.1 µM [rising, single point].
In the case of `CCOC(=O)CSc1nnc(C2CCCCC2)n1C`, the cell number change was -17.2%. Further, under setting [2], the AC50 is 0.00651 µM [falling, full curve, poor fit]. Also, under setting [1], the AC50 was 0.411 µM [falling, full curve, poor fit].
Regarding `CN(C)N=Nc1ccc(S(=O)(=O)NC(Cc2ccccc2)C(=O)O)cc1` (stereo not given), the cell number change turned out to be 18.9%.
In the case of `O=C(NCCCl)Nc1ccccc1OCCOc1ccccc1NC(=O)NCCCl`, the cell number change is -14.3%.
For the compound `COc1ccc(Br)cc1CNC(=O)c1ccc2c(c1)N(C)CCS2`, the cell number change is -31.1%. For the same compound, the AC50 under setting [2] was 32.6 µM [falling, single point].
For the compound `O=C(O/N=C/C1=C(Cl)c2ccccc2CC1)c1ccc(F)cc1`, the cell number change is -6.96%.
With `COc1ccc(C(=O)Nc2ccccc2C(=O)NCc2ccco2)cc1OC`, the cell number change was -8.4%.
For `Cc1ccc(OCc2ccc(C(=O)Nc3nc4ccccc4n3Cc3ccccc3)o2)c([N+](=O)[O-])c1`, the cell number change amounted to 31.6%. The AC50 under setting [2] is 0.411 µM [rising, full curve]. The AC50 under setting [1] is 2.31 µM [rising, partial curve].
`CNc1nccc(-c2ccc(Cl)cc2)c1C#N`: the cell number change was -25.1%. Also, under setting [2], the AC50 is 0.517 µM [falling, full curve, poor fit].
On to `CCOc1ccccc1N1CCN(C(=S)NC(=O)C23CC4CC(CC(C4)C2)C3)CC1`, for which the cell number change came out at 5.87%. For the same compound, under setting [1], the half-maximal activity concentration (AC50) is 0.146 µM [rising, full curve].
Turning to `Nn1c(Cc2cccc3ccccc23)nnc1SCC(=O)NC1CCS(=O)(=O)C1` (stereo not given), the cell number change is -13.7%. The concentration at half-maximal activity (AC50) under setting [1] was 0.116 µM [falling, full curve].
As to `Cc1noc(C)c1COc1ccc(C(=O)OC(C)C(=O)Nc2ccc(S(=O)(=O)N3CCOCC3)cc2)cc1` (stereo not given), the cell number change was -2.5%.
For the compound `COc1ccc(CCNC(=O)C(C)OC(=O)c2nsc(Cl)c2Cl)cc1OC` (stereo not given), the AC50 under setting [1] is 29.1 µM [falling, single point].
For the compound `O=C(O)CCCN1C(=O)/C(=C/c2cn(-c3ccccc3)nc2-c2cccs2)SC1=S`, the cell number change was -28.5%. Under setting [1], the AC50 was 20.6 µM [falling, single point].
`Cc1ccsc1-c1nc(-c2ccccc2)c(-c2ccccc2)[nH]1`: the cell number change is -17.5%.
For `Cc1nnc(NC(=O)CSCc2ccccc2)s1`, the cell number change worked out at 38.4%. Besides, under setting [2], the AC50 is 0.0058 µM [rising, full curve, poor fit].
Take `CCOC(=O)C1CCCN(c2nc3ccccc3nc2C(C#N)C(=O)NCc2ccccc2)C1` (stereo not given): the cell number change was 66.8%. For the same compound, the AC50 under setting [2] is 1.03 µM [rising, full curve].
Regarding `O=C(CCn1ccc2ccccc21)NC1CCCc2ccccc21` (stereo not given), the concentration at half-maximal activity (AC50) under setting [1] was 0.58 µM [falling, single point].
Turning to `Cc1c(Cl)cnc(NC(=O)COC(=O)C(NC(=O)c2ccco2)C(C)C)c1Cl` (stereo not given), the cell number change stood at 251%. Under setting [2], the AC50 was 9.2 µM [rising, partial curve]. In addition, under setting [1], the AC50 was 5.17 µM [rising, partial curve].
Consider `COCCCNc1nc2c(-c3cccc(C)c3)nnn2c2ccccc12`, for which the cell number change is 7%. Also, the AC50 under setting [2] is 6.51 µM [rising, single point]. In addition, the AC50 under setting [1] was 6.51 µM [rising, single point].
Turning to `O=C(CNCc1ccncc1)Nc1cc(S(=O)(=O)N2CCCCC2)ccc1Cl`, the cell number change was 38.7%. The AC50 under setting [2] is 7.31 µM [rising, partial curve, poor fit]. For the same compound, under setting [1], the AC50 is 4.61 µM [rising, full curve, poor fit].
With `Cc1ccc(C)c(NC(=O)CN(C)S(=O)(=O)c2cccc3cccnc23)c1`, the AC50 under setting [1] is 29.1 µM [rising, single point].
For `Cc1c(Cl)ccc2sc(NC(=O)c3ccco3)nc12`, the cell number change came out at 10.7%. Moreover, the AC50 under setting [1] is 32.6 µM [falling, single point].
On to `Cc1ccc(S(=O)(=O)N(Cc2cccc(C)c2)C(=O)N2CCN(C)CC2)cc1`, for which the cell number change was -75%. Further, the AC50 under setting [2] was 18.4 µM [falling, single point].
For the compound `COc1cccc2cc(-c3csc(NC(=O)CCC(=O)NCCCN4CCC(C)CC4)n3)c(=O)oc12`, the cell number change was determined as 8.64%.
In the case of `Cc1cc2nnc(SCC(=O)Nc3ccc(Cl)cc3)n2c(N)n1`, the cell number change stood at 18.3%.
Take `CCOCCCNC(=O)C1CC(=O)N(CCc2ccc(C)cc2)C1` (stereo not given): the AC50 under setting [2] was 2.06 µM [rising, single point] and the AC50 under setting [1] was 2.31 µM [rising, partial curve].
As to `c1ccc2sc(NC3=NCN(Cc4ccc5c(c4)OCO5)CN3)nc2c1`, the cell number change stood at 3.28%.
In the case of `Cc1nn(-c2ccccc2)c(N2CCCC2)c1/C=C1\N=C(c2ccccc2)OC1=O`, the cell number change turned out to be 34.8%. The AC50 under setting [2] was 18.4 µM [rising, single point]. Also, the AC50 under setting [1] is 23.1 µM [rising, single point].
Consider `Cc1ccccc1OCC(O)Cn1c(N2CCCCC2)nc2c1c(=O)[nH]c(=O)n2C` (stereo not given), for which the cell number change was -7.74%. Moreover, the AC50 under setting [1] is 6.51 µM [rising, single point].
As for `Cc1ccnc(Nc2nc(-c3ccc(O)cc3O)cs2)c1`, the cell number change was -71.5%. Moreover, the AC50 under setting [2] was 23.1 µM [falling, single point]. Moreover, the AC50 under setting [1] was 20.6 µM [falling, single point].
In the case of `CCOC(=O)c1c(NC(=O)CN2CCCCC2)sc2c1CCN(C(=O)OCC)C2`, the cell number change was -34.6%. In addition, under setting [2], the AC50 was 29.1 µM [falling, single point]. For the same compound, under setting [1], the concentration at half-maximal activity (AC50) is 29.1 µM [falling, single point].
As to `Cc1ccc(/C=N/n2c(C)nc3ccccc3c2=O)s1`, the AC50 under setting [2] was 5.8 µM [rising, single point].
Regarding `O=C(CSC1=NCCS1)Nc1ccc(S(=O)(=O)NC2CCCCC2)cc1`, the AC50 under setting [1] was 2.91 µM [falling, partial curve, poor fit].
On the same count and under the same terms, the same measure for `Cc1ccc(OCc2cc(C(=O)N(C)Cc3cnn(-c4ccccc4C)c3)no2)cn1`: 29.1 µM [falling, single point].
With `CCCn1c2ccccc2c2cnn(CC(=O)NC3CCN(Cc4ccccc4)CC3)c(=O)c21`, the cell number change was 22.4%. Also, under setting [1], the AC50 was 3.26 µM [rising, single point].
On to `COc1ccc([C@]23Cc4cc(C#N)ccc4C(O2)C2=C(CC4(CCCCC4)OC2=O)O3)cc1`, for which the cell number change came to 18.3%. Also, the AC50 under setting [1] was 0.596 µM [rising, single point].
`Cc1cccc2sc(NC(=O)C3CCN(S(=O)(=O)c4cc([N+](=O)[O-])ccc4Cl)CC3)nc12`: the cell number change is -17.7%. Moreover, the AC50 under setting [1] is 11.6 µM [falling, partial curve, poor fit].
Consider `O=C(CSc1ncccn1)Nc1cc(Cl)ccc1[N+](=O)[O-]`, for which the cell number change worked out at 52.2%. In addition, the AC50 under setting [2] was 7.31 µM [rising, partial curve].
Take `COc1ccccc1N1CCN(C(CNS(=O)(=O)c2ccc(C)cc2)c2cccnc2)CC1` (stereo not given): the AC50 under setting [2] was 1.03 µM [rising, full curve] and the AC50 under setting [1] is 0.92 µM [rising, full curve].
Regarding `COC(C(=O)Nc1cc([N+](=O)[O-])ccc1C)c1ccccc1` (stereo not given), the cell number change was 26.2%. Also, the AC50 under setting [1] is 35.5 µM [rising, partial curve].
Turning to `CC1CCc2c(sc(NC(=O)CSc3nnc(-c4ccccc4)o3)c2C#N)C1` (stereo not given), the cell number change was found to be 16%. The AC50 under setting [1] was 0.116 µM [rising, full curve].
`Cn1c(C(=O)NCCN2CCc3ccccc3C2)cc2c(=O)n(C)c3ccccc3c21`: the cell number change was 6.92%. In addition, the AC50 under setting [1] was 2.31 µM [rising, single point].
